Data: patent US7872101B1, “Modulators of the orphan G protein-coupled receptors GPR78 and GPR26” (Schering Corporation, priority 2006, dated 2011)
At least one structure is not confirmed: it was looked up by name or label, or the drawing left a doubt.

Sequences of proteins named here, by UniProt entry; tags and fusion partners are left off. A change or cut given only in a name is not applied to a line headed by its entry.
UniProt Q96P69: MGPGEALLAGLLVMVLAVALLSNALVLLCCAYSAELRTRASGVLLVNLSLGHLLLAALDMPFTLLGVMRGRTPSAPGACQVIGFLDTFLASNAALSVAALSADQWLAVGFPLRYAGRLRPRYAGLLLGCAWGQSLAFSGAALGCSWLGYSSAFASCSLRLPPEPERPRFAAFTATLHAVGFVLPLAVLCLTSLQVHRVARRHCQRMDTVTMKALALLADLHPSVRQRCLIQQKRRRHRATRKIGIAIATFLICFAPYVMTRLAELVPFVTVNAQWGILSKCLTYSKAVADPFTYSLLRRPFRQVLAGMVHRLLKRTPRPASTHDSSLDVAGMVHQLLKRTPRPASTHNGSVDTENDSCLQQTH
UniProt Q8NDV2: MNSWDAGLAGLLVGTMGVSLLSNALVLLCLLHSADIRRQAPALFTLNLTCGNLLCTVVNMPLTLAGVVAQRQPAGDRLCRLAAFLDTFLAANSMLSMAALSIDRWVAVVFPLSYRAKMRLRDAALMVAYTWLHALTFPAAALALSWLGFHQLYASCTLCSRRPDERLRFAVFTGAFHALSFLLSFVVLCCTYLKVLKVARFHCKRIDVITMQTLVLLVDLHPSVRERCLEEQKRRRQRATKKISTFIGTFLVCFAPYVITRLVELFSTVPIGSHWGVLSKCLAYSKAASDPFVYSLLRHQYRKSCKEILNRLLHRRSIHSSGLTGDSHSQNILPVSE

Legend:
Format in all cases: cell-based
GPR78 [1] = target: T1, GPR78 (Homo sapiens, UniProt Q96P69); experiment: cre-luciferase cAMP reporter assay in GPR78-transfected HEK293/cre-luc cells
T1 construct: Full length open reading frames (ORFS) of GPR78 and GPR26 were obtained with PCR; expressed in transfected cells; host or cells: HEK293/cre-luc
Protocol: HEK293/cre-luc cells were harvested by 0.05% trypsin EDTA buffer, cells re-suspended in complete culture medium 20 million in […] transfection cuvette, 1 microgram receptor plasmid was transfected into reporter cells by electroporation method. The parameter of the GenePulser (Bio-Rad Laboratories, Hercules, Calif.) was set at: voltage 200 volts and capacity 500 microfarads. After electroporation, cells were re-suspended at a density of 25,000 cells in 25 μl complete medium, placed in 384-well plate. After 24 hours of transfection, the transfection medium was replaced with fresh complete medium. Empty plasmid vector was transfected as a negative control (mock transfection).
When inhibitors were used in the assay, they were added 30 minutes before cell stimulation. At the end of incubation, 25 μl of Bright-Glo™ obtained from Promega (Madison, Wis.) was added into each well. Luciferase activity was determined with a luminometer (Luminoskan Ascent®, Thermo-Electron Corp.), at a speed of 100 milliseconds per well.
Response of cells with the expressed receptor to test ligand stimulation was subject to two types of detection: intracellular cAMP accumulation and intracellular Ca2+ flux monitored with fluorescent intensity using a Fluorimetric Image Plate Reader (FLIPR).

GPR78 [2] = target: T1, GPR78; experiment: direct intracellular cAMP measurement (Meso Scale Discovery kit) in HEK293/cre-luc cells stably transfected with GPR78; settings: 10 μM forskolin, 20,000 cells, FIG. 2C
Protocol: (§1) Constructs PCR3.1-GPR78 and PCR3.1-GPR26 were transfected into HEK293/cre-luc cells with use of Lipofectamine™ 2000 and cells were selected for G418 resistance. Cells resistant to G418 were further diluted and selected for individual colonies. Cell lines grown from the G418-resistant colonies were screened for positive response with genistein in the Cre-Luciferase cAMP assay.
(§2) Intracellular cAMP was measured directly with a cAMP kit purchased from Meso Scale Discovery (Gaithersburg, Md., Ma6000 cAMP 384-well Kit, Catalog number K210FDD-2). The assay was preformed by following the manufacturer's protocol. Briefly, stable HEK293/cre-luc cells expressing GPR78 or GPR26 were harvested, washed with PBS and resuspended at 300,000/10 μl of assay buffer (from the kit) containing 0.5 mM IBMX. Genistein at appropriate concentrations was diluted in the cAMP assay buffer and 5 μl was added into wells of the assay plate. The mixture was then incubated at room temperature for 30 minutes. Light intensity in assay wells was measured using a MSD SI6000 instrument obtained from Meso Scale Discovery.

GPR26 = target: T2, GPR26 (Homo sapiens, UniProt Q8NDV2); experiment: direct intracellular cAMP measurement (Meso Scale Discovery kit) in HEK293/cre-luc cells stably transfected with GPR26; settings: 10 μM forskolin, 30,000 cells, FIG. 8B
T2 construct: Full length open reading frames (ORFS) of GPR78 and GPR26 were obtained with PCR; expressed in transfected cells; host or cells: HEK293/cre-luc
Protocol: as §1, §2
GPR26, another orphan GPCR, shares 51% identity in the seven transmembrane regions with GPR78 ([19]). […] HEK293/cre-luc cells were transiently transfected with pCR3.1-GPR26 and monitored cAMP levels upon stimulation with genistein. […]

cAMP level compared to buffer control / genistein (GPR78 [1]; isoflavones, FIG. 3) | cellular cAMP in cells that expressed GPR78 versus cells that did not (GPR78 [1]; 10 μM forskolin, positive control, FIG. 1) | cAMP stimulated (used as 100% stimulation) (GPR78 [2]) | cAMP stimulated (used as 100% stimulation) (GPR26) | Structure (SMILES)
only slightly induced cAMP levels | – | – | – | COc1ccc(-c2coc3cc(O)ccc3c2=O)cc1 [formononetin]
– | comparable levels | 194 nM | 195 µM | C=C[C@@]1(C)CC(=O)[C@]2(O)[C@@]3(C)[C@@H](O)CCC(C)(C)[C@@H]3[C@H](O)[C@H](OC(C)=O)[C@@]2(C)O1 [forskolin]
